Data: PubChem BioAssay (EPA / NIEHS)
For part of these data: Most of the hits are listed elsewhere, so they are rarer here than in the full data. Only a part is listed here, and it is no random draw. The source made the active and inactive calls. Rule for the calls: active = hit-call score of the fitted dose curve at least 0.9, where 1 is the maximum; inactive = score below 0.9.

Sequences of proteins named here, by UniProt entry; tags and fusion partners are left off.
UniProt P24462, whole entry, looked up: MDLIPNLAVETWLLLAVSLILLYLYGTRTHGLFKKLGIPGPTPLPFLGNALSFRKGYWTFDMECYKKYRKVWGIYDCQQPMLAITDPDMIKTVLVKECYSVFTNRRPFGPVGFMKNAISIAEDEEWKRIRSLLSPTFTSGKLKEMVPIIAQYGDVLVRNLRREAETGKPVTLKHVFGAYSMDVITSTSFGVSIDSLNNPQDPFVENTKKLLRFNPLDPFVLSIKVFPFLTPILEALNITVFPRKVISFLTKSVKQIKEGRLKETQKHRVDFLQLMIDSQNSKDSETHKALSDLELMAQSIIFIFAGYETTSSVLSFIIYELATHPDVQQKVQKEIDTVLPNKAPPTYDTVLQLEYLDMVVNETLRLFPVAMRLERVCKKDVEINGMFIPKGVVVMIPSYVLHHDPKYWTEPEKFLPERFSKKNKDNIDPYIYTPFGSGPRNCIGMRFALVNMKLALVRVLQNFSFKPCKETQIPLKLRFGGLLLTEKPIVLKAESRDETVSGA

Tests used:
Details in all cases: actives raise or lower the signal; mRNA level, 48 h
[1] = read-out: Cytochrome P450 (CYP1A1), CYP1A1 (gene 1543); assay: LTEA_HepaRG_CYP1A1: Life Technologies and Expression Analysis (LTEA) Assay for Cytochrome P450 (CYP1A1) using HepaRG (AID 2283454)
In short: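 HepaRG, 48 h post-plating switched to serum-free induction medium; 8-pt conc-response (top 100 uM, half-log, 0.5% DMSO), duplicates, 48 h. Lysis in RLT, TaqMan qRT-PCR for CYP1A1; gain or loss vs DMSO.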

[2] = read-out: Cytochrome P450 (CYP24A1), CYP24A1 (gene 1591); assay: LTEA_HepaRG_CYP24A1: Life Technologies and Expression Analysis (LTEA) Assay for Cytochrome P450 (CYP24A1) using HepaRG (AID 2283478)
In short: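 HepaRG, 48 h chemical exposure, 8-pt half-log CRC from 100 uM, 0.5% DMSO vehicle, duplicates. Endpoint: CYP24A1 mRNA by Fluidigm TaqMan qRT-PCR, normalized ACTB/GAPDH/POLR2A; gain/loss fit vs DMSO.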

[3] = read-out: Cytochrome P450 (CYP1A2), CYP1A2 (gene 1544); assay: LTEA_HepaRG_CYP1A2: Life Technologies and Expression Analysis (LTEA) Assay for Cytochrome P450 (CYP1A2) using HepaRG (AID 2283479)
In short: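 CYP1A2 transcript induction or loss, quantified by Fluidigm qRT-PCR against three housekeeping genes, was fitted bidirectionally against 0.5% DMSO controls. Human HepaRG cells received eight half-log concentrations from 100 uM over 48 h.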

[4] = read-out: Cytochrome P450 (CYP2B6), CYP2B6 (gene 1555); assay: LTEA_HepaRG_CYP2B6: Life Technologies and Expression Analysis (LTEA) Assay for Cytochrome P450 (CYP2B6) using HepaRG (AID 2283481)
In short: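 HepaRG cells plated 48 h, switched to serum-free induction medium, then dosed 48 h (8 points, half-log from 100 uM, 0.5% DMSO). RNA isolated; CYP2B6 expression measured by qRT-PCR; gain or loss fitted relative to DMSO.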

[5] = read-out: Cytochrome P450 3A7 (Homo sapiens) (UniProt P24462); assay: LTEA_HepaRG_CYP3A7: Life Technologies and Expression Analysis (LTEA) Assay for CYP3A7 using HepaRG (AID 2283492)
Procedure: LTEA_HepaRG is a cell based, multiplexed-readout assay that uses HepaRG, a human liver cell line, with measurements taken at 48 hours after chemical dosing on a 96-well plate.LTEA_HepaRG_CYP3A7 is one of 102 assay component(s) measured in the LTEA HepaRG cell culture assay. It is a marker of NR mediated metabolism/Undifferentiated hepatocyte.Data from the assay component LTEA_HepaRG_CYP3A7 was analyzed into 1 endpoint. This assay endpoint, LTEA_HepaRG_CYP3A7, was analyzed with bidirectional fitting relative to DMSO as the negative control and baseline of activity. Using a type of inducible reporter, measures of mRNA induction for gain or loss-of-signal activity can be used to understand regulation of transcription factor activity. To generalize the intended target to other relatable targets, this assay endpoint is annotated to the cyp intended target family, where the subfamily is xenobiotic metabolism.
A total of 1060 chemcials from the ToxCast library were tested in eight-point concentration-response experiments. Cell culture and cytotoxicity assays were conducted at Thermo Fisher Scientific's Custom Services facility (Madison, WI). […] Fluidigm's 96.96 Dynamic ArrayTM (Fluidigm, Amsterdam, the Netherlands) technology was used for gene expression analyses by quantitative reverse transcription polymerase chain reaction (qRT-PCR, performed by Quintiles/Expression Analysis, Durham, NC)89. […]

CYP3A5 (gene 1577) = assay: LTEA_HepaRG_CYP3A5: Life Technologies and Expression Analysis (LTEA) Assay for CYP3A5 using HepaRG (AID 2283493)
In short: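 HepaRG cells, plated 48 h then in serum-free induction medium, dosed in duplicate for 48 h with eight half-log concentrations up to 100 uM in 0.5% DMSO. Gene mRNA by Fluidigm TaqMan qRT-PCR, normalized to ACTB, GAPDH, POLR2A.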

Measured: AC50

CS(=O)(=O)c1ccc([C@@H](C[C@H]2CCC(=O)C2)C(=O)Nc2cnccn2)cc1Cl
active: [1] 14.7 µM | [2] 4 µM | [3] 1.18 µM | [4] 1.45 µM | [5] 20.2 µM
inactive: CYP3A5 (gene 1577)
